Measurements from patent publication US4638003A, “1-(4-alkylthiophenyl)-2-(substituted or unsubstituted piperazine-1-yl)-1,3-propanediol, pharmaceutical compositions containing them useful as antiarrhythmic and vasodilating agents” (Zambon S.p.A., priority 1983, dated 1987).

How the values were obtained:
anesthetized rat = experiment: coronary dilating activity (coronary spasm induced by Vasopressin, T wave in E.C.G.) in anesthetized rat; format: in vivo; settings: iv, 2 min, i.v. 60 seconds after Vasopressin, T wave restored in 50% of the animals within 2 minutes
Procedure: The evaluation of the coronary dilating activity has been performed with the method of O. Nieschultz, et al. (Arzneim. Forsch. 5, 680, 1955). The coronary spasm induced by Vasopressin corresponds to the flattering of T wave in the E.C.G. The coronary dilating activity of the compounds has been referred as dose effective 50 in restoring the T wave in the 50% of the animals within 2 minutes after the administration. The compounds have been administered intravenously 60 seconds after Vasopressin.

[1] = test system: isolated rabbit aorta (vascular smooth muscle); experiment: calcium antagonist activity on isolated rabbit aorta (CaCl2-induced contraction)

C(=C\c1ccccc1)/CN1CCN(C(c2ccccc2)c2ccccc2)CC1 [Cinnarizine, reference compound]
ED50 (anesthetized rat): 0.00086 µmol/kg | ratio between the CaCl2 concentration producing the 50% contraction in presence or in absence of various compounds ([1]; concentration in perfused liquid 10^-5 M): 22 | ratio between the CaCl2 concentration producing the 50% contraction in presence or in absence of various compounds ([1]; concentration in perfused liquid 10^-6 M): 1
